Experimental data: PubChem BioAssay AID652259 (Drosophila RNAi Screening Center, 2013)
In all, the deposit lists about 22,000 reagents; shown is an unselected part of those with a known target gene and a result. Over the whole deposit, 233 (1.1%) got an active call. 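Light values are raw, unnormalised plate reads; the ratio scores behind the reporter calls were not deposited.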 Entries without a mark were called inactive. A plus sign joins genes that one reagent is predicted to hit. Reagent sequences are not shown. The record does not give: the amount of reagent, the time to read-out, the dose of the treatment.

Assay: 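Identify new Wingless signalling regulators in fly cells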 (primary screen)
System: Drosophila clone 8 imaginal disc epithelial cells
Reagent: long dsRNA against Drosophila genes
Conditions: pathway stimulated by co-transfected Wingless expression plasmid
Measurement: 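Firefly luciferase from a tcf-site Wingless reporter, measured alongside co-transfected Renilla luciferase that tracks transfection; pathway stimulated by a Wingless plasmid; the firefly-to-Renilla ratio is not deposited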
Direction: firefly reporter light: higher = more Wg reporter light, before normalisation; Renilla control light: higher = more transfected or surviving cells
Rule for the call: 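Strong candidates differ from their plate mean by at least two out of four per-plate statistical tests; weak candidates meet just one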
Meaning of the calls: active = candidate regulator (raises or lowers reporter); inactive = not a candidate

| gene | amplicon | reporter change call, replicate 1 | firefly reporter light, replicate 1 | firefly reporter light, replicate 2 | Renilla control light, replicate 1 | Renilla control light, replicate 2 |
| --- | --- | --- | --- | --- | --- | --- |
| CG34005 | DRSC05700 | – | 17979 | – | 7481 | – |
| p38c (p38c MAP kinase) | DRSC22939 | – | 5.92e5 | 6.34e5 | 2.63e5 | 2.02e5 |
| mei-W68 (meiotic W68) | DRSC07649 | – | 3361 | – | 1831 | – |
| CG13062 | DRSC09945 | – | 6981 | – | 3091 | – |
| Gbp1 (Growth-blocking peptide 1) | DRSC06592 | – | 7520 | – | 2572 | – |
| REPTOR (Repressed by TOR) | DRSC14626 | – | 4631 | 6339 | 1683 | 1072 |
| CG5250 | DRSC15752 | – | 15460 | – | 3922 | – |
| poe (purity of essence) | DRSC03593 | Wg reporter activity lowered (active) | 5488 | – | 4519 | – |
| Non2 (Novel nucleolar protein 2) | DRSC08272 | – | 18141 | – | 6226 | – |
| CG34386 | DRSC06467 | Wg reporter activity raised (active) | 10112 | – | 1264 | – |
| CG34386 | DRSC06468 | – | 5090 | – | 1741 | – |
| Tnpo-SR (Transportin-Serine/Arginine rich) | DRSC00546 | – | 8788 | – | 4282 | – |
| wrm1 + wrm2 | DRSC11007 | – | 6592 | – | 2932 | – |
| Ndfip (Nedd4 family interacting protein) | DRSC11201 | – | 3580 | – | 1787 | – |
| bdg (bedraggled) | DRSC07136 | – | 11024 | – | 3421 | – |
| CG5708 | DRSC02881 | – | 3459 | 8442 | 1044 | 3618 |
| CG8117 | DRSC20082 | – | 20688 | – | 10763 | – |
| CG5984 | DRSC15930 | – | 6122 | – | 4278 | – |
| Tsf1 (Transferrin 1) | DRSC20296 | – | 24613 | – | 14752 | – |
| drpr (draper) | DRSC08143 | – | 4357 | – | 3159 | – |
| drpr (draper) | DRSC08525 | – | 5610 | – | 3184 | – |
| ytr (yantar) | DRSC04306 | – | 20546 | – | 6538 | – |
| ytr (yantar) | DRSC22073 | – | 5.75e5 | 5.98e5 | 2.04e5 | 2.32e5 |
| Neu2 (Neuroectoderm-expressed 2) | DRSC11819 | – | 18273 | – | 6042 | – |
| CG12991 | DRSC19511 | – | 26704 | – | 10685 | – |
| par-6 | DRSC20359 | – | 2316 | 10289 | 908 | 2554 |
| rl (rolled) | DRSC07833 | – | 7730 | – | 3904 | – |
| rl (rolled) | DRSC20742 | – | 11202 | – | 8116 | – |
| rl (rolled) | DRSC21814 | – | 5.78e5 | 5.01e5 | 2.47e5 | 1.93e5 |
| mRpL40 (mitochondrial ribosomal protein L40) | DRSC15749 | – | 15709 | – | 3449 | – |
| CG12640 | DRSC17847 | – | 26387 | – | 9031 | – |
| Bro | DRSC08149 | – | 5949 | – | 2432 | – |
| eIF3h (eukaryotic translation initiation factor 3 subunit h) | DRSC01995 | – | 17804 | – | 3976 | – |
| Vha13 (Vacuolar H[+] ATPase 13kD subunit) | DRSC16895 | – | 23554 | – | 3893 | – |
| CG8675 | DRSC20117 | – | 2176 | 8123 | 1068 | 3424 |
| RhoU | DRSC17635 | – | 5049 | – | 2035 | – |
| RhoU | DRSC17803 | – | 11531 | – | 6752 | – |
| RhoU | DRSC17804 | – | 26125 | 7.20e5 | 13546 | 3.27e5 |
| RhoU | DRSC22159 | – | 7.57e5 | 7.50e5 | 3.14e5 | 3.14e5 |
| RhoU | DRSC22396 | – | 7.24e5 | 7.17e5 | 3.07e5 | 2.62e5 |
| Rh4 + sina | DRSC11396 | – | 6403 | – | 2594 | – |
| Cht10 (Chitinase 10) | DRSC03766 | – | 3424 | 5290 | 981 | 2384 |
| Cht10 (Chitinase 10) | DRSC03767 | – | 8816 | – | 2549 | – |
| Cht10 (Chitinase 10) | DRSC03768 | – | 2624 | 6315 | 866 | 2932 |
| SpdS (Spermidine Synthase) | DRSC16408 | – | 16039 | – | 3643 | – |
| Dhit (Double hit) | DRSC07411 | – | 14322 | – | 3209 | – |
| UBL3 (Ubiquitin like 3) | DRSC20298 | – | 15256 | – | 6093 | – |
| CG13323 | DRSC06360 | – | 4820 | – | 1689 | – |
| msn (misshapen) | DRSC07990 | – | 2908 | – | 1091 | – |
| msn (misshapen) | DRSC08498 | – | 6992 | – | 3043 | – |

Targets listed so far whose gene name starts with T or t (2):
| gene | amplicon | reporter change call, replicate 1 | firefly reporter light, replicate 1 | firefly reporter light, replicate 2 | Renilla control light, replicate 1 | Renilla control light, replicate 2 |
| --- | --- | --- | --- | --- | --- | --- |
| Tnpo-SR (Transportin-Serine/Arginine rich) | DRSC00546 | – | 8788 | – | 4282 | – |
| Tsf1 (Transferrin 1) | DRSC20296 | – | 24613 | – | 14752 | – |
